Results deposited as PubChem BioAssay AID1259308 (NCATS, 2017).
In all, the deposit lists about 59,000 reagents; below is a random part of them. Over the whole deposit, about 1,510 (2.6%) got an active call. 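Calls use total luciferase alone and ignore viability, so some active siRNAs may act by altering cell number.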 Reagents against one gene are numbered here. Not all columns of the deposit are shown. Reagent sequences are not shown.

Aim: 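Knock-downs that increase output of a recombinant reporter protein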 (primary screen)
Cell system: human HEK293 embryonic kidney cells stably expressing firefly luciferase (HEK-CMV-Luc2-Hygro)
Reagents: single siRNA against human genes, 0.8 pmol siRNA per well
Time to read-out: 72 h
Read-out: 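Luciferase light (ONE-Glo) measured on one replicate plate set and viability (CellTiter-Glo) on the other, scaled to a negative control siRNA, with robust z-scores and luciferase per cell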
Direction: total luciferase, z-score and total luciferase, % of control: higher = more reporter protein produced
Call rule: 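Active when the median/MAD z-score for overall luciferase is greater than 3; a gene was taken forward for validation with new siRNAs if at least two of its three siRNAs passed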
Calls: active = raised luciferase; inactive = no rise

| gene | siRNA no. | total luciferase, z-score | total luciferase, % of control | outcome |
| --- | --- | --- | --- | --- |
| SLFN11 (GeneID 91607) | 1 | -0.322 | 75.5 | inactive |
| SLFN11 (GeneID 91607) | 2 | 1.38 | 109 | inactive |
| SLFN11 (GeneID 91607) | 3 | -1.3 | 56 | inactive |
| DYNC1H1 (GeneID 1778) | 1 | -1.25 | 57 | inactive |
| DYNC1H1 (GeneID 1778) | 2 | -0.115 | 79.6 | inactive |
| DYNC1H1 (GeneID 1778) | 3 | 1.53 | 112 | inactive |
| GALNT16 (GeneID 57452) | 1 | 0.636 | 94.5 | inactive |
| GALNT16 (GeneID 57452) | 2 | -1.74 | 47.3 | inactive |
| GALNT16 (GeneID 57452) | 3 | 1.43 | 110 | inactive |
| POGLUT2 (GeneID 79070) | 1 | 0.725 | 96.3 | inactive |
| POGLUT2 (GeneID 79070) | 2 | -0.0558 | 80.8 | inactive |
| POGLUT2 (GeneID 79070) | 3 | -1.25 | 57 | inactive |
| SRP9P1 (GeneID 653226) | 1 | 0.0116 | 82.1 | inactive |
| SRP9P1 (GeneID 653226) | 2 | -0.062 | 80.7 | inactive |
| SRP9P1 (GeneID 653226) | 3 | 0.464 | 91.1 | inactive |

4 entries from above in another layout:
gene,siRNA no.,"total luciferase, z-score","total luciferase, % of control",outcome
POGLUT2 (GeneID 79070),2,-0.0558,80.8,inactive
POGLUT2 (GeneID 79070),3,-1.25,57,inactive
SRP9P1 (GeneID 653226),1,0.0116,82.1,inactive
SRP9P1 (GeneID 653226),2,-0.062,80.7,inactive

Additional entries follow:
| gene | siRNA no. | total luciferase, z-score | total luciferase, % of control | outcome |
| --- | --- | --- | --- | --- |
| FRG2C (GeneID 100288801) | 1 | 0.361 | 89.1 | inactive |
| FRG2C (GeneID 100288801) | 2 | -0.36 | 74.7 | inactive |
| FRG2C (GeneID 100288801) | 3 | -0.144 | 79 | inactive |
| EDN2 (GeneID 1907) | 1 | 0.0611 | 83.1 | inactive |
| EDN2 (GeneID 1907) | 2 | -0.613 | 69.7 | inactive |
| EDN2 (GeneID 1907) | 3 | -0.605 | 69.8 | inactive |
| QRSL1 (GeneID 55278) | 1 | -0.333 | 75.3 | inactive |
| QRSL1 (GeneID 55278) | 2 | -0.496 | 72 | inactive |
| QRSL1 (GeneID 55278) | 3 | -0.133 | 79.2 | inactive |
| H1-5 (GeneID 3009) | 1 | -1.52 | 51.6 | inactive |
| H1-5 (GeneID 3009) | 2 | 0.616 | 94.1 | inactive |
| H1-5 (GeneID 3009) | 3 | 0.755 | 96.9 | inactive |
| KCNMB1 (GeneID 3779) | 1 | -0.177 | 78.4 | inactive |
| KCNMB1 (GeneID 3779) | 2 | -2.64 | 29.3 | inactive |
| KCNMB1 (GeneID 3779) | 3 | 0.709 | 96 | inactive |
| MPZ (GeneID 4359) | 1 | -0.309 | 75.7 | inactive |
| MPZ (GeneID 4359) | 2 | 1.27 | 107 | inactive |
| MPZ (GeneID 4359) | 3 | -0.768 | 66.6 | inactive |
| NDUFA7 (GeneID 4701) | 1 | -0.429 | 73.4 | inactive |
| NDUFA7 (GeneID 4701) | 2 | 0.508 | 92 | inactive |
| NDUFA7 (GeneID 4701) | 3 | -0.00801 | 81.7 | inactive |
| SLC1A4 (GeneID 6509) | 1 | -1.84 | 45.3 | inactive |
| SLC1A4 (GeneID 6509) | 2 | 1.33 | 108 | inactive |
| SLC1A4 (GeneID 6509) | 3 | -0.663 | 68.7 | inactive |
